We go through twelve molecules from paper PMC10352258.

By UniProt entry, the sequences of proteins in these tests, tags left out.
UniProt O00560: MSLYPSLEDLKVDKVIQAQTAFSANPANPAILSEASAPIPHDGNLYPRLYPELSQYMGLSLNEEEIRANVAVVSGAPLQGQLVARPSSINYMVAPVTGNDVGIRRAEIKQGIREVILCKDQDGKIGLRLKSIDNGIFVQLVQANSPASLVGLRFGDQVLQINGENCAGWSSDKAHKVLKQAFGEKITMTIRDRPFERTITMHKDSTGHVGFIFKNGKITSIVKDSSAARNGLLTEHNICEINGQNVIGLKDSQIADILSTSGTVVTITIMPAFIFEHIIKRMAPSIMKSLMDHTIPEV
UniProt O15379: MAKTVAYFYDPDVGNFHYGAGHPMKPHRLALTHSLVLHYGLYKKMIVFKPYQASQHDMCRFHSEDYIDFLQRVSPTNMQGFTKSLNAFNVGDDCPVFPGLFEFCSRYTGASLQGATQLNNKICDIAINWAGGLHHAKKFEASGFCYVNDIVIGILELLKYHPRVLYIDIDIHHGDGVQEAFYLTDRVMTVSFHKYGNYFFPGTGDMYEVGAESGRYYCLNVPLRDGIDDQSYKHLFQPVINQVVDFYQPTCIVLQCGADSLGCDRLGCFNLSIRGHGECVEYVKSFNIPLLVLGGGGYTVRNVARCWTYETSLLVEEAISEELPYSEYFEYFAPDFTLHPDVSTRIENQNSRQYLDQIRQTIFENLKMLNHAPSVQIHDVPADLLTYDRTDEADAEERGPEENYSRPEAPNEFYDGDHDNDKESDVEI
UniProt P10275: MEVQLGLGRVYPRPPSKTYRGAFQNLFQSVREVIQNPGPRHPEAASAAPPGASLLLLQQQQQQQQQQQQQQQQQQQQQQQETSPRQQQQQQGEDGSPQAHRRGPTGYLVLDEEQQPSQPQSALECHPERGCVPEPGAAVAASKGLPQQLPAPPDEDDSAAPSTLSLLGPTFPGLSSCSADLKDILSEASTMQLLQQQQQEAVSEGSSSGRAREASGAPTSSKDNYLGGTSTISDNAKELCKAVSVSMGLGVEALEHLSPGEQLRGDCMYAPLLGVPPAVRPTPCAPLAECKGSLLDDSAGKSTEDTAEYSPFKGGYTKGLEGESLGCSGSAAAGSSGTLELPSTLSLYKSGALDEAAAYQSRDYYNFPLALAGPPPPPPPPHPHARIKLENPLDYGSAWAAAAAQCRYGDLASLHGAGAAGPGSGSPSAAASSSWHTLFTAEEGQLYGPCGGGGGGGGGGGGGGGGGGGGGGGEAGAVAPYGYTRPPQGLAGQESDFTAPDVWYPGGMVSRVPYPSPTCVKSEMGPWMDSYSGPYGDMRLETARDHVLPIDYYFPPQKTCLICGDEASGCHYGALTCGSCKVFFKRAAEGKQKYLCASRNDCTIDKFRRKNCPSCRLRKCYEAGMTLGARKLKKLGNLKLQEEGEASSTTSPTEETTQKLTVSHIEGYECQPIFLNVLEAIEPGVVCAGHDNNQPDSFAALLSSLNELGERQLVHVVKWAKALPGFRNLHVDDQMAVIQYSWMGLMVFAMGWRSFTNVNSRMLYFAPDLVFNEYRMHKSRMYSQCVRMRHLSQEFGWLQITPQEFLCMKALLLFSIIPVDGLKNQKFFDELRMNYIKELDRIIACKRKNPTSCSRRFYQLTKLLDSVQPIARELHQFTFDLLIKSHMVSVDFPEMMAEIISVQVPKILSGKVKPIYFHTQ

Read-outs that look alike come from different tables or passages of the source. No constants are given. Whether binding was seen depends on the method and setting. For some of these results: In cells and extracts the contact can be indirect. Some binding calls cover weakened binding; strength is not graded here. For some of these results: Tags and fused reporters may be left off the sequences shown.

The target in assay [1] is HSP90 (construct not stated) (UniProt P07900). Nature of the assay: co-IP; immunoprecipitation to detect associations between HSP90 and a panel of HDAC 1–11, SIRT 1–7 and a series of HATs (Supplementary Fig. S3a, S3d); constructs not stated.
Assay [2] has as its target syndecan binding protein (SDCBP), endogenous (human (endogenous in ESCC cells)) (UniProt O00560). Put plainly: co-IP; endogenous proteins in ESCC cell lysates, primary antibody overnight at 4 °C, protein A/G Sepharose beads, western blot; SDCBP-HSP90 and HDAC11-HSP90 also after treatment of the cells with V020-9974 (Fig. 6h, i).
For assay [3], the target named is exogenous HSP90 (HSP90 overexpression) (UniProt P07900). Put plainly: co-IP; exogenous HSP90 and SDCBP (Supplementary Fig. S4d); constructs not stated.
Assay [4] addresses HSP90 (construct not stated) (UniProt P07900). Put plainly: co-IP; HSP90, SDCBP and HDAC11 together; HDAC11-bound and SDCBP-bound HSP90 compared in the presence of SDCBP (Fig. 4k).
The target of assay [5] is heat shock protein 90 (HSP90 AA1), endogenous (human (endogenous in ESCC cells)) (UniProt P07900). Nature of the assay: co-IP; endogenous proteins in ESCC cell lysates, primary antibody overnight at 4 °C, protein A/G Sepharose beads, western blot; SDCBP-HSP90 and HDAC11-HSP90 also after treatment of the cells with V020-9974 (Fig. 6h, i).
Assay [6] deals with SDCBP (construct not stated) (UniProt O00560). Put plainly: co-IP; exogenous HSP90 and SDCBP (Supplementary Fig. S4d); constructs not stated.
Assay [7] concerns the target Flag-tagged SDCBP (wild type) (UniProt O00560). Nature of the assay: co-IP; ESCC cells cotransfected with Flag-tagged SDCBP (wild type or truncation mutants) and Myc-tagged HSP90 (wild type or mutants).
For assay [8], the target named is wild-type HSP90 (HSP90-WT), pcDNA3.1-Flag plasmid (UniProt P07900). Put plainly: co-IP; HSP90-WT or HSP90-K754R with client proteins and cochaperones (Fig. 2f, g); cell lysates, primary antibody overnight at 4 °C, protein A/G Sepharose beads, western blot. For orientation: A western blot detects proteins with antibodies after separation by electrophoresis.
Assay [9] concerns the target HSP90-K754R mutant, pcDNA3.1-Flag plasmid (UniProt P07900). Described as above.
In assay [10] the target is Myc-tagged HSP90 (wild type) (UniProt P07900). Put plainly: co-IP; binding of HDAC11 to wild-type or mutant HSP90 (Fig. 4j).
Assay [11] concerns the target heat shock protein 90 (HSP90 AA1), endogenous (human (endogenous in ESCC cells)) (UniProt P07900). Nature of the assay: co-IP; endogenous proteins in ESCC cell lysates, primary antibody overnight at 4 °C, protein A/G Sepharose beads, western blot; SDCBP-HSP90 and HDAC11-HSP90 also after treatment of the cells with V020-9974 (Fig. 6h, i). This is another data set of the same source.

The target in assay [12] is HSP90-GST recombinant protein (UniProt P07900). Nature of the assay: pull-down; GST or HSP90-GST immobilised on Glutathione-Sepharose beads (2 h, 4 °C), His-tagged proteins added, overnight at 4 °C, western blot; both purified.

On to “HDAC3 (from UniProt O15379 1-428) (enzyme)”, for which, in [1], the binding result is recorded as “binds”.

On to “heat shock protein 90 (HSP90 AA1), endogenous (from UniProt P07900-2 1-854)”, for which the binding entry in assay [2] is recorded as “binds”.

For “SDCBP (construct not stated) (from UniProt O00560 1-298)”, the binding result in assay [3] and in assay [4] was “binds” each time.

For the molecule “HDAC1 (from UniProt Q13547 1-482) (enzyme)”, the binding result in assay [1] is recorded as “binds”.

As for “syndecan binding protein (SDCBP), endogenous (from UniProt O00560 1-298)”, the binding entry in assay [5] was “binds”.

In the case of “exogenous HSP90 (HSP90 overexpression) (from UniProt P07900-2 1-854)”, in [6], the binding entry is reported as “binds”.

Regarding “Myc-tagged HSP90 (wild type) (from UniProt P07900-2 1-854)”, in assay [7], the binding entry is reported as “binds”.

Regarding “Androgen Receptor (from UniProt P10275 1-920)”, the binding result in [8] and in [9] was “binds” each time.

B1: SIRT4 (enzyme, UniProt Q9Y6E7 29-314)
chain: IGLFVPASPPLDPEKVKELQRFITLSKRLLVMTGAGISTESGIPDYRSEKVGLYARTDRRPIQHGDFVRSAPIRQRYWARNFVGWPQFSSHQPNPAHWALSTWEKLGKLYWLVTQNVDALHTKAGSRRLTELHGCMDRVLCLDCGEQTPRGVLQERFQVLNPTWSAEAHGLAPDGDVFLSEEQVRSFQVPTCVQCGGHLKPDVVFFGDTVNPDKVDFVHKRVKEADSLLVVGSSLQVYSGYRFILTAWEKKLPIAILNIGPTRSDDLACLKLNSRCGELLPLIDPC
As for B1, the binding entry in assay [1] was “binds”.

B2: HDAC11 (construct not stated) (enzyme, UniProt Q96DB2 1-347)
chain: MLHTTQLYQHVPETRWPIVYSPRYNITFMGLEKLHPFDAGKWGKVINFLKEEKLLSDSMLVEAREASEEDLLVVHTRRYLNELKWSFAVATITEIPPVIFLPNFLVQRKVLRPLRTQTGGTIMAGKLAVERGWAINVGGGFHHCSSDRGGGFCAYADITLAIKFLFERVEGISRATIIDLDAHQGNGHERDFMDDKRVYIMDVYNRHIYPGDRFAKQAIRRKVELEWGTEDDEYLDKVERNIKKSLQEHLPDVVVYNAGTDILEGDRLGGLSISPAGIVKRDELVFRMVRGRRVPILMVTSGGYQKRTARIIADSILNLFGLGLIGPESPSVSAQNSDTPLLPPAVP
Consider B2, for which the binding entry in [10], in [1] and in [4] was “binds” throughout.

B3: histone deacetylase 11 (HDAC11), endogenous (enzyme, UniProt Q96DB2 1-347)
chain: MLHTTQLYQHVPETRWPIVYSPRYNITFMGLEKLHPFDAGKWGKVINFLKEEKLLSDSMLVEAREASEEDLLVVHTRRYLNELKWSFAVATITEIPPVIFLPNFLVQRKVLRPLRTQTGGTIMAGKLAVERGWAINVGGGFHHCSSDRGGGFCAYADITLAIKFLFERVEGISRATIIDLDAHQGNGHERDFMDDKRVYIMDVYNRHIYPGDRFAKQAIRRKVELEWGTEDDEYLDKVERNIKKSLQEHLPDVVVYNAGTDILEGDRLGGLSISPAGIVKRDELVFRMVRGRRVPILMVTSGGYQKRTARIIADSILNLFGLGLIGPESPSVSAQNSDTPLLPPAVP
In the case of B3, the binding result in assay [11] is given as “binds”.

B4: HDAC11-His recombinant protein (enzyme, UniProt Q96DB2 1-347)
chain: MLHTTQLYQHVPETRWPIVYSPRYNITFMGLEKLHPFDAGKWGKVINFLKEEKLLSDSMLVEAREASEEDLLVVHTRRYLNELKWSFAVATITEIPPVIFLPNFLVQRKVLRPLRTQTGGTIMAGKLAVERGWAINVGGGFHHCSSDRGGGFCAYADITLAIKFLFERVEGISRATIIDLDAHQGNGHERDFMDDKRVYIMDVYNRHIYPGDRFAKQAIRRKVELEWGTEDDEYLDKVERNIKKSLQEHLPDVVVYNAGTDILEGDRLGGLSISPAGIVKRDELVFRMVRGRRVPILMVTSGGYQKRTARIIADSILNLFGLGLIGPESPSVSAQNSDTPLLPPAVP
On to B4, for which the binding result in [12] was “binds”.
